These results are taken from publication PMC5307357.

The chains behind the UniProt entries cited, without tags or fusion partners.
UniProt Q9FRL8: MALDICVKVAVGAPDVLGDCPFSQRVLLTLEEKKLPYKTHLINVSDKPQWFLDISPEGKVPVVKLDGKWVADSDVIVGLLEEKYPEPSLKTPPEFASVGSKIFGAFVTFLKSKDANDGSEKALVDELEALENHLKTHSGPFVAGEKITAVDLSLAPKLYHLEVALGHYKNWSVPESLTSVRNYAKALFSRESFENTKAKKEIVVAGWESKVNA

These are yes or no findings as the source states them, for the method shown.

The experiment addresses Arabidopsis thaliana dehydroascorbate reductase 2 (Arabidopsis thaliana) (UniProt Q9FRL8). Briefly: crystal structure; glutathionylated AtDHAR2 at 20 mg/mL, hanging drop vapor diffusion, 2 M ammonium sulfate, 0.1 M sodium acetate pH 4.8, 20 °C; 2.3 Å, space group P21221; both purified.

As to “Arabidopsis thaliana dehydroascorbate reductase 2 (from UniProt Q9FRL8 1-213) (enzyme)”, the binding entry is “no binding”.
